Values of other authors in patent publication US11969483B2, “Porous nanocarriers for the monitoring and treatment of bladder cancer” (NANOMEDTRIX, LLC, priority 2019, dated 2024).

Structure (SMILES): O=C([O-])CN(CCN(CC(=O)[O-])CC(=O)O)CCN(CC(=O)[O-])CC(=O)O.[Gd+3] [Gd-DTPA]
- attenuation relative to Iohexol 300 (equivalent concentration): roughly ⅓
- attenuation compared with iodinated CT contrast agents (tube voltage 120 kVp): comparable
